Results: article PMC6152180, “Design, Synthesis and Evaluation of Hesperetin Derivatives as Potential Multifunctional Anti-Alzheimer Agents” (Molecules : A Journal of Synthetic Chemistry and Natural …, 2017)

Assay: Oxygen radical absorbance capacity-fluorescein (ORAC-FL) assay
Conditions: Trolox equivalents, Trolox = 1

In the case of COc1cc2c(cc1OC)C(=O)C(CC1CCN(Cc3ccccc3)CC1)C2 (stereo not shown) [Donepezil, donepezil, reference compound], the ORAC is reported as <0.1 μM of Trolox equivalent/μMof tested compound.
